The experiment has as its target T1, Gamma-aminobutyric acid receptor subunit alpha-5 (Homo sapiens, UniProt P31644).
T1 sequence (P31644 whole entry): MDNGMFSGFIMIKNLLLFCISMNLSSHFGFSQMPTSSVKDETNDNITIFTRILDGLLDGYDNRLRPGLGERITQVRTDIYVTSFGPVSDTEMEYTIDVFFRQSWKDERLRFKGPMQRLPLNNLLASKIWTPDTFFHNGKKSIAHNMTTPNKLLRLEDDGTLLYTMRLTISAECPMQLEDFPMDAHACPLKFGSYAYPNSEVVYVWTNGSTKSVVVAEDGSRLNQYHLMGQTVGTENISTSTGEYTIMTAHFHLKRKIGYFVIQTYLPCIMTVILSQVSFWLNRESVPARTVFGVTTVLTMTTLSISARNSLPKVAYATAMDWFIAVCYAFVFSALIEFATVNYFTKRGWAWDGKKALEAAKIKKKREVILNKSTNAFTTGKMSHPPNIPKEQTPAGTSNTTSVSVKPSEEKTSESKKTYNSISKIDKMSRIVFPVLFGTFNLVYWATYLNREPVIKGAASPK
The experiment is described as follows: Binding affinity to GABA-A alpha5 (unknown origin).

Results on one compound are retold here after ChEMBL document CHEMBL4402545, “Subtype Selective γ-Aminobutyric Acid Type A Receptor (GABAAR) Modulators Acting at the Benzodiazepine Binding Site: An Update” (J Med Chem, 2020).

As usually defined, the pKi is the Ki on a negative log10 scale, so that one unit is a factor of ten. Low readings indicate a large Ki, high ones a small Ki.

The structures appear in SMILES notation. pKi: −log10 of the molar value.

`CN1C(=O)CN=C(c2ccccc2)c2cc(Cl)ccc21` [DIAZEPAM]: the negative logarithm of the Ki (pKi) was 7.82.
